According to patent US20250297116A1, “PRECURSOR COMPOUNDS FOR MOLECULAR COATINGS” (Apeel Technology, Inc., priority 2015, published 2025):
Some entries repeat one wording, which the source may state once for all of them.

tested on: blueberries; experiment: Average daily mass loss rate and residues of coated blueberries; details: bag coated, 10 mg/mL in ethanol

Question: `CCCCCCCCCCCCCCCCCC(=O)OC(CO)CO` [SA-2G, 1,3-dihydroxypropan-2-yl octadecanoate] was tested. Which “visible residues on surface” value did it give?
Answer: The value was “heavy (wide-spread visible residues covering most or all of the surface)”.

Question: For `CCCCCCCCCCCCCCCC(=O)OC(CO)CO` [PA-2G, 1,3-dihydroxypropan-2-yl palmitate], which “visible residues on surface” value is on record?
Answer: The value was “heavy (wide-spread visible residues covering most or all of the surface)”.

Question: With `CCCCCCCCCCCCCCCC(=O)OCC(O)CO` (stereo not shown) [PA-1G, 2,3-dihydroxypropan-1-yl palmitate] as the compound, how does the “visible residues on surface” value read?
Answer: Its value is “heavy (wide-spread visible residues covering most or all of the surface)”.

Question: Which “visible residues on surface” value does the source give for `CCCCCCCCCCCCCCCCCC(=O)OCC(O)CO` (stereo not shown) [SA-1G, 2,3-dihydroxypropan-1-yl octadecanoate] here?
Answer: The value was “heavy (wide-spread visible residues covering most or all of the surface)”.
